## Library screen at single concentrations

By UniProt entry, the sequences of proteins in these tests, tags left out. Residues count along the entry.
UniProt Q4DA54, 1-478: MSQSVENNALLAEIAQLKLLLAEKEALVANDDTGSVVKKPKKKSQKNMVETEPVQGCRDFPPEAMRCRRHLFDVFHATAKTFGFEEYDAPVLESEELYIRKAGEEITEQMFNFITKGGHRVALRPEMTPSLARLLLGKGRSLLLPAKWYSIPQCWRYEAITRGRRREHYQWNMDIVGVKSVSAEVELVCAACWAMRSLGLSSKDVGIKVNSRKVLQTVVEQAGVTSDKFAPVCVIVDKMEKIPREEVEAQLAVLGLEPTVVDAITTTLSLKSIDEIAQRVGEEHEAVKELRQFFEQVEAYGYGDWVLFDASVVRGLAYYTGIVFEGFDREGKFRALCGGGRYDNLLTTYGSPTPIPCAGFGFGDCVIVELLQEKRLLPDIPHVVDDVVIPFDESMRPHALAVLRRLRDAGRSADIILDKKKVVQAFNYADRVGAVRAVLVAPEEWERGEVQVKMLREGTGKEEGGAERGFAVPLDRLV

The values are deposited in ChEMBL (CHEMBL3988442, “University of Dundee, Small-Polar-MMV Screening Library” (2021)).

Values are the deposited “Percent Effect”, in %. The controls that fix the scale are not given in the record; negative values are as filed. This is an unselected part of the compounds tested.

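Enzyme assay of histidyl-tRNA synthetase; the read-out is not stated. Target: Histidine-tRNA ligase, Trypanosoma cruzi CL Brener (UniProt Q4DA54). Tested at 30 µM. Direction is inferred from retests: higher values go with stronger inhibition. About 69,000 compounds were tested under these conditions; 0.045% (about 31) showed 50% or more at least once.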

Result for CC(C)CN(CC(O)c1ccc(F)cc1)C(=O)c1csnn1 (stereo not shown) was 1.657%. CCc1cc(N2CCC(N[C@@H]3CS(=O)(=O)C[C@H]3O)CC2)nc(N(C)C)n1 gave 10.13%. For CSc1ncccc1C(=O)NCc1ccc(CS(=O)(=O)NC(C)C)cc1 the result was 5.639%. Cc1ccsc1CN1C[C@@H]2CN(Cc3cccnc3)CCO[C@@H]2C1 read 5.882%. Cc1cc(C)c(OCC(=O)NS(=O)(=O)c2cccnc2)c(C)c1 read -0.3802%. Cc1ccsc1CN(C)c1nc2c(cnn2C(C)(C)C)c(=O)[nH]1 read 9.244%. For Cn1cnc(S(=O)(=O)N2CCO[C@H]3[C@H](OCC4CC4)CC[C@@H]32)c1 the result was 3.448%.

With O=C(CCc1nc2cc(Br)cnc2[nH]1)NCCN1CCOCC1 the screen gave -2.439%. With CN1[C@H](CO)C[C@H](CNCc2ccc(CO)o2)[C@@H]1c1ccccc1F the screen gave 2.646%. Cc1nnc(CN2CCCCC2c2nc(-c3ccccc3)no2)s1 (stereo not shown) read 0%. Cn1cc(-c2nc(CN3CCOC(Cn4cccn4)C3)cs2)cn1 (stereo not shown) read 7.216%. With Cc1noc(C)c1C(=O)N(C)Cc1nc(-c2ccccn2)no1 the screen gave 2.075%. With COCCN1C(=O)CC[C@@H]2[C@H]1CCN2Cc1ccc(C)s1 the screen gave 3.941%. Result for CCn1nc(CC(C)C)cc1C(=O)NCc1c(C)cc(C)nc1OC was 4.523%.

For O=C(C1CC(=O)N(c2ccccc2Br)C1)N1CCCCCC1 (stereo not shown) the result was 0%. COCCSCC(=O)NC1(c2cccc(Br)c2)CC1 gave -0.9852%. For CCOc1ccc(C(=O)NCc2ccnc(N3CCN(C)CC3)c2)cn1 the result was 0.4926%. CC(=O)N1CCCC(c2ccc(C(N)=O)cn2)C1 (stereo not shown) gave 2.247%. For O=C(c1ccc(-n2cccn2)c(F)c1)N1CCCN2CCCC2C1 (stereo not shown) the result was 6.667%. OC(CN(Cc1ccccc1)Cc1cscn1)c1cccs1 (stereo not shown) read 6.349%. CCN1CCN(CC(C)(O)c2cccc(C(F)(F)F)c2)CC1 (stereo not shown) read 1.901%.

With Cc1cccc(C2CCCN(C(=O)c3ccncc3)C2)n1 (stereo not shown) the screen gave 5.556%. With CN(CCOc1cccc(F)c1)Cc1nc2c(cnn2C)c(=O)[nH]1 the screen gave 6.936%. For COCC(=O)N1CCC2(CCN(Cc3cccnc3)C2)CC1 the result was 8.738%. For COc1ccc2c(c1)CCCN2C(=O)CN1CCOC(CN(C)C)C1 (stereo not shown) the result was 12.43%. With CC1=Nc2c(c(O)nn2C(C)C)C(c2cn(C)nc2C)S1 (stereo not shown) the screen gave 31.36%. Result for Cc1cnn(CC2CCCN2C(=O)c2ccc3c(c2)nnn3C)c1 (stereo not shown) was 6.098%. Cc1cc(NC(=O)NCC(CC(C)C)N2CCOCC2)n(C)n1 (stereo not shown) read 0.5814%.

Cc1cc(CNCc2c(C)nn(C)c2N2CCOCC2)no1 read -0.3802%. For Cc1ccc(N2C[C@@H](CN3CCOCC3)[C@@H](CO)C2)nn1 the result was -0.5181%. For Cc1ccc(CN2CCC3(CCN(Cc4ccncc4)CC3)CC2)cc1 the result was -3.448%. COC(=O)C1CCN(c2cc(C)nc(-c3ccncc3)n2)CC1 read 14.53%. O=C(CCSC1CCc2ccccc2NC1=O)NCCCO (stereo not shown) gave 6.061%. With CN(CC1CCCCO1)c1ncnc2cc(F)ccc12 (stereo not shown) the screen gave -1.288%. With CC(O)CN1CCN(C(=O)c2cnc(OC(C)C)c(Cl)c2)CC1 (stereo not shown) the screen gave -25.49%.

Some entries from above, unchanged:

| structure | Percent Effect |
|---|---|
| `CCn1nc(CC(C)C)cc1C(=O)NCc1c(C)cc(C)nc1OC` | 4.523% |
| `O=C(c1ccc(-n2cccn2)c(F)c1)N1CCCN2CCCC2C1` (stereo not shown) | 6.667% |
| `Cn1cc(-c2nc(CN3CCOC(Cn4cccn4)C3)cs2)cn1` (stereo not shown) | 7.216% |